According to US11007273B2, “Prochelators as targeted prodrugs for prostate cancer and methods of making and using same” (Duke University, priority 2017, dated 2021):
For some of these results: The name of at least one read-out is uncertain. At least one structure is not confirmed: it was looked up by name or label, or the drawing left a doubt.

The chains behind the UniProt entries cited, without tags or fusion partners.
UniProt P19440, whole entry, species assumed: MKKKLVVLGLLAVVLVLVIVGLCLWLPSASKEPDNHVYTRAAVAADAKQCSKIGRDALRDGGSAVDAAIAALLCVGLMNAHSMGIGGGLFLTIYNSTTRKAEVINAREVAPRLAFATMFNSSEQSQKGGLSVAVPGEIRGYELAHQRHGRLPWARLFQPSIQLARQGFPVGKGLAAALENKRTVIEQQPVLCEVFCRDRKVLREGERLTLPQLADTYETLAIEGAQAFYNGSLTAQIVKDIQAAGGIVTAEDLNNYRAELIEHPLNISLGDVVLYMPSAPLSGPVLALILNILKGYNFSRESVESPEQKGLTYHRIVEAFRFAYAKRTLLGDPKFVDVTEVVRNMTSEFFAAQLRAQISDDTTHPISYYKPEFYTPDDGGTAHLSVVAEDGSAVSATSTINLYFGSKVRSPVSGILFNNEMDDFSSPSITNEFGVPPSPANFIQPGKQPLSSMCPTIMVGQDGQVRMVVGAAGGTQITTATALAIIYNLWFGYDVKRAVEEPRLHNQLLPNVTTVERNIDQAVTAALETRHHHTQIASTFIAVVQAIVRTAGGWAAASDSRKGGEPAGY

What was measured:
[1] = tested on: LNCaP cells; type: cell-based, human; settings: varying Cu and prodrug, within 24 h (dPSA-DTC: even after 72 h)
Method: Antiproliferation assay: To determine the amount of Cu(II) required for cell studies a checkerboard assay was performed by varying the prodrug or drug concentration and Cu(II) concentration. 22RV1, LNCaP, PC3, MCF-7, and PWR-1E (5,000 cells/well) were seeded in 96-well plates with regular media (22Rv1, LNCaP, and PC-3 in RPMI with 10% FBS; MCF-7 in DMEM with 10% FBS; PWR-1E in Keratinocyte-SFM) and let adhere for 24 h. The following day, the media was replaced with serum free media and cells were treated as indicated for an additional 24 h or 72 h. Cell proliferation was measured using a fluorometric resazurin reduction method. 20 μL of 700 μM Resazurin (Sigma R7017) was added in each well and incubated at 37° C. for 2 h. Fluorescence at 580 nm was measured by exciting at 555 nm with a plate reader. Each experiment was performed in triplicate, and the experiments were repeated three times. Viability vs drug concentration plot from a representative experiment are shown with standard deviation from the experiment as error bar. The error bar in IC50 values represents standard deviation from three different experiments.

[2] = target: GGT (Homo sapiens, UniProt P19440); experiment: Competition experiments vs. γE-pNA for GGT; type: biochemical; settings: vs E-pNA
Method: Competition experiments vs. γE-pNA for GGT: To perform the inhibition study, a serial dilution of γE-pNA was performed ranging from 1 mM to 3 μM in PBS with 1 mM Gly-Gly (dilution factor=0.5; pH 7.4; 10% DMSO; 100 μL) using a clear, flat bottom 96 well plate. GGT binding molecules, as indicated, were added to separate sets of triplicate wells to reach a final concentration of 10 and 100 μM. Before the addition of enzyme, the plate was cooled to 4° C. for 15 min. To initiate the assay, 10 μL of 50 U/L GGT was added to each well and an initial absorbance scan was performed. Subsequent scans were performed every 10 min for ˜2 h. In between each scan, the plates were stored at 37° C. in a humidified incubator to reduce solvent evaporation. The experiment was repeated in triplicate.
To probe the reactivity of Glu-DTC in comparison to the enzyme's natural substrate GSH, competition experiments were conducted against the colorimetric substrate L-glutamic acid γ-(p-nitroanilide) [E-pNA]. The colorimetric assay involves monitoring p-nitroaniline release by absorbance at 405 nm upon reaction of the probe substrate E-pNA with GGT in the presence of an inhibiting substrate, either Glu-DTC (FIG. 15A) or GSH (FIG. 15C).

[3] = Copper-calcein competition assay; type: physicochemical; settings: without GGT; PBS pH 7.4

Q: Which “antiproliferative activity in checker board assay with Cu” value [1] does the source give for CCN(CC)C(=S)SSC(=S)N(CC)CC [DSF, disulfiram, reference compound] here?
A: showed a synergy in cytotoxicity with Cu

Q: For CCN(CC)C(=S)S [DTC, diethyldithiocarbamate, reference compound], which “effect on enzyme kinetics” value [2] is on record?
A: does not affect enzyme kinetics

Q: What about the “competition with calcein for Cu(II) binding (fluorescence recovery)” value [3] of the same molecule?
A: could restore the fluorescence

Q: With CCN(CC)C(=S)SCc1ccc(NC(=O)CC[C@H](N)C(=O)O)cc1 [Glu-DTC] as the molecule, how does the “competition with calcein for Cu(II) binding (fluorescence recovery)” value [3] read?
A: could not compete with calcein for Cu binding
